From the supplement of paper PMC6411743
± gives the standard deviation of the averaged measurements. The list shows a part of the results, in another mix than the full data. Most entries show no effect beyond the scatter of the controls.

By UniProt entry, the sequences of proteins in these tests, tags left out. Where a name states a change or a piece, a line headed by the entry shows the natural chain unless it says otherwise.
UniProt Q7Z2W4: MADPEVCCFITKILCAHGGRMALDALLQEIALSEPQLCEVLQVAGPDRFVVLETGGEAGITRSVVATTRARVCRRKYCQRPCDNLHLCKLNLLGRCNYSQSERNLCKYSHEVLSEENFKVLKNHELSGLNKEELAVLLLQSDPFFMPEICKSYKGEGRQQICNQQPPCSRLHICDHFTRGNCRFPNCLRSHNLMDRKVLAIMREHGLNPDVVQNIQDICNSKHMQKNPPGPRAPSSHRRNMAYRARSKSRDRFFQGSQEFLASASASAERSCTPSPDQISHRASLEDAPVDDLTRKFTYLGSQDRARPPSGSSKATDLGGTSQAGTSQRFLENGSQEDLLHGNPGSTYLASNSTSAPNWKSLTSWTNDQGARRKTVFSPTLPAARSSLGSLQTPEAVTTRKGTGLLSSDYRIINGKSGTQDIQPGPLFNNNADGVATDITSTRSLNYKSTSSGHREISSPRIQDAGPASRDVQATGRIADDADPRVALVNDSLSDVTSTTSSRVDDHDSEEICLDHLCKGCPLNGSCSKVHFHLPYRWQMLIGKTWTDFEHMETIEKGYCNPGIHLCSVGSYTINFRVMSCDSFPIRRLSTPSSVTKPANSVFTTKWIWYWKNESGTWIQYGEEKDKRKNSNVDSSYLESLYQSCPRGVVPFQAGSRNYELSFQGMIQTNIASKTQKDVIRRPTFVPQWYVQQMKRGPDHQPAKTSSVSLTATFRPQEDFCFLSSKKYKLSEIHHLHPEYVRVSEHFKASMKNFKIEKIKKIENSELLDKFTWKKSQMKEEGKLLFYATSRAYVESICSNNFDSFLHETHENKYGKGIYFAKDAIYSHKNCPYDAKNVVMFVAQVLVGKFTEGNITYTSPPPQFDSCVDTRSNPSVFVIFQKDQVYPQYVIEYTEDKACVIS
UniProt Q96GQ7: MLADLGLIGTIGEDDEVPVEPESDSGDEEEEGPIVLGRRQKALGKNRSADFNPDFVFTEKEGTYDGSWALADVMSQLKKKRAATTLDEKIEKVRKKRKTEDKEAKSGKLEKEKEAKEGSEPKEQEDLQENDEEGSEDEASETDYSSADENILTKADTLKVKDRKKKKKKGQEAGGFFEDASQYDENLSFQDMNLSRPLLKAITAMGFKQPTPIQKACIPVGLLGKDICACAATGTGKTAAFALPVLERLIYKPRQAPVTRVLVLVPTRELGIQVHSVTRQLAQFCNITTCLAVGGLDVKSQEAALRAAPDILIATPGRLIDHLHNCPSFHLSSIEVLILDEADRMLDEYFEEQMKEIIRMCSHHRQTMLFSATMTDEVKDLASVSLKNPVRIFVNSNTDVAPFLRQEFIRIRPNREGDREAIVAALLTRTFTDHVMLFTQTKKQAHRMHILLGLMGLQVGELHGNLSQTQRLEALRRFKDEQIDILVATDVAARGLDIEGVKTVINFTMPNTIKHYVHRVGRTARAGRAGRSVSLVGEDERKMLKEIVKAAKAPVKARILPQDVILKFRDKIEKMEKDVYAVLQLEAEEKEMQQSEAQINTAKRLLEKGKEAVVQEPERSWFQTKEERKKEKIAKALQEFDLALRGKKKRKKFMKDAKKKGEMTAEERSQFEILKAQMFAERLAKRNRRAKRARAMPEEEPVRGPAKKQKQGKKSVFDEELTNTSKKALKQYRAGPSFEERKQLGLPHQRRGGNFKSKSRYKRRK
UniProt A0MZ66, whole entry: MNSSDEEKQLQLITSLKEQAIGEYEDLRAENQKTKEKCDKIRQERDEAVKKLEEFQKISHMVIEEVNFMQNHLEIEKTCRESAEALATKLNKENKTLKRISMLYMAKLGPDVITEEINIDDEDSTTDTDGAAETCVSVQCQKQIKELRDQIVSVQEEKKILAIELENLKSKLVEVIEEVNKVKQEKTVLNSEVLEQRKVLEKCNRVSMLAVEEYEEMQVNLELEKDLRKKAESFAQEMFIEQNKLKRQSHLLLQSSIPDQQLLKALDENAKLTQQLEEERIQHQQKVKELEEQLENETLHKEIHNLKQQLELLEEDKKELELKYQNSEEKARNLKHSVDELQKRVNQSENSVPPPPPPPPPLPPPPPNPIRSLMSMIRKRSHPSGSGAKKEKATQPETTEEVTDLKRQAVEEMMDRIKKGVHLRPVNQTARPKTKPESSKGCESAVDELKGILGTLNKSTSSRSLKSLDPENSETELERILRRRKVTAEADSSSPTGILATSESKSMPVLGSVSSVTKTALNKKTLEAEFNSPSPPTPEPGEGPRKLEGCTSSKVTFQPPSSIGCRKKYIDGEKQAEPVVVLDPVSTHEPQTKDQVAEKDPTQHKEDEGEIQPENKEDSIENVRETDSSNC
UniProt Q6PFW1: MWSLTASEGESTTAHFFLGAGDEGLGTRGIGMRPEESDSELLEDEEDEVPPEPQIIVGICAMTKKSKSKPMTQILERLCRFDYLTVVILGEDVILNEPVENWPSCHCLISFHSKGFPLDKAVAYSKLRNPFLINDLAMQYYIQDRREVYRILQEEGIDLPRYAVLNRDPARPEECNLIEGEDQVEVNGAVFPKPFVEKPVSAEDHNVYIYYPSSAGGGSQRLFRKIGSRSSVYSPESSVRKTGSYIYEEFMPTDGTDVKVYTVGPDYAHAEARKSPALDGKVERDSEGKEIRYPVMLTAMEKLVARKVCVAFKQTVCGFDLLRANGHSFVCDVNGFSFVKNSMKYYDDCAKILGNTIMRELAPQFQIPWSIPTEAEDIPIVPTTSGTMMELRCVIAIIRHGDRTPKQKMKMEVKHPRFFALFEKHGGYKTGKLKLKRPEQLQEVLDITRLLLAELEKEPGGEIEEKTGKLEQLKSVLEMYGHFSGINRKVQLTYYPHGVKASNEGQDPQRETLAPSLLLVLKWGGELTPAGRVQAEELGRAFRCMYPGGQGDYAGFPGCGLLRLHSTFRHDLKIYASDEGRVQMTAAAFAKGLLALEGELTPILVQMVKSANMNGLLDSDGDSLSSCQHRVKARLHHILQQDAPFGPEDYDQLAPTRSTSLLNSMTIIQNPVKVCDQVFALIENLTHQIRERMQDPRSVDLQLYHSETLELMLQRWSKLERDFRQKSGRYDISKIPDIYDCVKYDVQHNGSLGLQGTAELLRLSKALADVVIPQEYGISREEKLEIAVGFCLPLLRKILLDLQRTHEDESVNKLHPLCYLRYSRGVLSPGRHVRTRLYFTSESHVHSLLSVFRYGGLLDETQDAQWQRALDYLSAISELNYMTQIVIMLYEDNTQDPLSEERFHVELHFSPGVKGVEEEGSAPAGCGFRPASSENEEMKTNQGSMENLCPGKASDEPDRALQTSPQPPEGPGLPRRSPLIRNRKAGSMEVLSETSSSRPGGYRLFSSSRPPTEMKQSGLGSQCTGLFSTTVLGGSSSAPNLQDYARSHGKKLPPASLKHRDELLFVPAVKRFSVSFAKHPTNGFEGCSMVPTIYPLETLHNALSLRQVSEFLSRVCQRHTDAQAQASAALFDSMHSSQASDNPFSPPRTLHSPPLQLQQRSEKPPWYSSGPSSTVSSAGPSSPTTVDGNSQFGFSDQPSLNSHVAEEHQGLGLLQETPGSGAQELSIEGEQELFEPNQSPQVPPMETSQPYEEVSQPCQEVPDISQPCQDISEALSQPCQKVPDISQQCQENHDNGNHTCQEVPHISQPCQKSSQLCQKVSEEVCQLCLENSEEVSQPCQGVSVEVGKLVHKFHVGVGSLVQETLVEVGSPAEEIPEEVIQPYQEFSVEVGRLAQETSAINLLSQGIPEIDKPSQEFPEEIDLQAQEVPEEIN
UniProt Q9Y519: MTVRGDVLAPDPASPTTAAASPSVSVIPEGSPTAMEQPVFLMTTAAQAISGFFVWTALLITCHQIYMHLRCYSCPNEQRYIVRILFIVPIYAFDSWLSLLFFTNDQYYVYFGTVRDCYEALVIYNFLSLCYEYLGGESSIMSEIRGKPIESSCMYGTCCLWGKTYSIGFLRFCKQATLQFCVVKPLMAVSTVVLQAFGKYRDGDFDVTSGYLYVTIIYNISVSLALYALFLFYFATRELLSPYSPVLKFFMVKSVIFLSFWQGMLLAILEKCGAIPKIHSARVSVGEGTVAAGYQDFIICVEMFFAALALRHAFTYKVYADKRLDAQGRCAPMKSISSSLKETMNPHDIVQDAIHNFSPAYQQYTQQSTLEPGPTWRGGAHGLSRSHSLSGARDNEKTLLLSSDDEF
UniProt P63165, whole entry: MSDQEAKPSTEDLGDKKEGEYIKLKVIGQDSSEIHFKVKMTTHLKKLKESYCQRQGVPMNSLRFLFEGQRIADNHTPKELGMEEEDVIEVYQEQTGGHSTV
UniProt O15372, whole entry: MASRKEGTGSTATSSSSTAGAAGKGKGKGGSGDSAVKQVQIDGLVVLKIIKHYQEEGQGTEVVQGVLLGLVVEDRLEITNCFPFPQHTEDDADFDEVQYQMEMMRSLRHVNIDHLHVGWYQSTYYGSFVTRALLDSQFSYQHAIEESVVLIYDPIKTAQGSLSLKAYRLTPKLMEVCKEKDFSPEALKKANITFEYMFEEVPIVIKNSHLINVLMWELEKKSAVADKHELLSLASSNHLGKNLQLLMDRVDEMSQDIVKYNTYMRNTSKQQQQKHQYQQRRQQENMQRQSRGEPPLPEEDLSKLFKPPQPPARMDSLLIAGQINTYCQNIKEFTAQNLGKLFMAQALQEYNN
UniProt A2RTX5: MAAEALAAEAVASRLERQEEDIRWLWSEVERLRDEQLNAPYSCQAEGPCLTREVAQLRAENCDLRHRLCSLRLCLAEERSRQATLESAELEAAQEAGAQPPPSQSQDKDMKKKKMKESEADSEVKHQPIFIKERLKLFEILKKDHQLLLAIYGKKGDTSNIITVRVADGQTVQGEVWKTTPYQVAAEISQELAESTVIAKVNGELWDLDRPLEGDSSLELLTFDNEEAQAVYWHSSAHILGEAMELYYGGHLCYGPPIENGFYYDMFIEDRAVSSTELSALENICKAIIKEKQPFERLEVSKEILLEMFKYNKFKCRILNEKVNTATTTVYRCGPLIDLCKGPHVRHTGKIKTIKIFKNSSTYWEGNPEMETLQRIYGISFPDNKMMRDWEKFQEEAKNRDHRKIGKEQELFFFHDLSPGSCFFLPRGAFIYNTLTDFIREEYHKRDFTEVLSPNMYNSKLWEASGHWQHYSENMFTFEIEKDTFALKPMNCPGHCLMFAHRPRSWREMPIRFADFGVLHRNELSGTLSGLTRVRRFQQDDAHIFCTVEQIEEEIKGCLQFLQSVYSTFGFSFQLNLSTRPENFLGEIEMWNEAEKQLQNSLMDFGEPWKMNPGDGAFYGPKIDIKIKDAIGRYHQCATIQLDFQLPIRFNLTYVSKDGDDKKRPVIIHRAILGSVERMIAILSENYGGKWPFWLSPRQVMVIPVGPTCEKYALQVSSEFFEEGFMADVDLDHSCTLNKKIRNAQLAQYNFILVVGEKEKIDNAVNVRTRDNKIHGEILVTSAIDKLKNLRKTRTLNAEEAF
UniProt Q9NZJ5: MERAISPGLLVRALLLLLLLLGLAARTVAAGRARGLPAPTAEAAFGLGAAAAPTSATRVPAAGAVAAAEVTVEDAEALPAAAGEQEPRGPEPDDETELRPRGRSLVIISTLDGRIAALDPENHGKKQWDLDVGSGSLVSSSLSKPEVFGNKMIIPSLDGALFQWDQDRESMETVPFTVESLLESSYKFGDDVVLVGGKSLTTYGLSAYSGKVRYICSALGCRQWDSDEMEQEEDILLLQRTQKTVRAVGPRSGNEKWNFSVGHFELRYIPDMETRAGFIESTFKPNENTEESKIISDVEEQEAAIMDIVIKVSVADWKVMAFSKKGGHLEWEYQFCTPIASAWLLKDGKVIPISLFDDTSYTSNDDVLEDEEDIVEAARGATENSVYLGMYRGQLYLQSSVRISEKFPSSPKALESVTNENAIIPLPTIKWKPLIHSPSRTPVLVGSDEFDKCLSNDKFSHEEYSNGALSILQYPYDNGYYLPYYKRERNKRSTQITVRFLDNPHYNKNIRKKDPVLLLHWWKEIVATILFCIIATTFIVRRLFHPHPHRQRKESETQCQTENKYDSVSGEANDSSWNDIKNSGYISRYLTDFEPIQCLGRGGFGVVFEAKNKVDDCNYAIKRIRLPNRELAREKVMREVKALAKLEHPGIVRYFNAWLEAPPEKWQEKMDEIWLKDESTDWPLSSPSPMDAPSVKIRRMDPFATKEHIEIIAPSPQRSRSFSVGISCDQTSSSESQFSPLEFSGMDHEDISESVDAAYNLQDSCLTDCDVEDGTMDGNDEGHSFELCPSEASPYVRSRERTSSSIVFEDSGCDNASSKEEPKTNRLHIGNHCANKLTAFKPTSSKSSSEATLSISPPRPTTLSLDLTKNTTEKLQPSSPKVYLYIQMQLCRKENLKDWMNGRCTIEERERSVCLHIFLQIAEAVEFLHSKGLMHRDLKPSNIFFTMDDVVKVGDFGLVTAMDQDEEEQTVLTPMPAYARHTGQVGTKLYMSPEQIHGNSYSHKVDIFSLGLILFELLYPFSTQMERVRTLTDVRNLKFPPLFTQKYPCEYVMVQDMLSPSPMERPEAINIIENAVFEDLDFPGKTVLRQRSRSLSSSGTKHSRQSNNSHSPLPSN

Compound: Nc1ncnc2c1ncn2[C@@H]1O[C@H](COP(=O)(O)OP(=O)(O)OP(=O)(O)O)[C@@H](O)[C@H]1O [adenosine triphosphate]
Experiment: NP40-soluble protein abundance relative to vehicle (solubility fold change) (ratio); higher = more soluble protein in presence of ATP
Outline: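 Values are fold changes against the detergent-processed vehicle, based on vsn-normalised intensities. Jurkat crude lysate was treated at eight concentrations from 0.1 to 10 mM (10 min at room temperature, then 3 min at 37 °C), solubilised with 0.8% NP40 and benzonase, ultracentrifuged and analysed by TMT-labelled LC-MS/MS over three independent experiments.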

Target	NP40-soluble protein abundance (concentration: 0.1mM)	NP40-soluble protein abundance (concentration: 0.5mM)
A8MVZ6 and related entries (UniProt Q96G01)	1.01 ± 0.03	0.98 ± 0.06
C9J6P4 and related entries (UniProt Q7Z2W4)	1.06 ± 0.029	1.16 ± 0.052
A3KFL2 and related entries (UniProt Q13868)	1.07 ± 0.024	1.06 ± 0.034
B7Z6D5 and related entries (UniProt Q96GQ7)	1.03 ± 0.066	1.06 ± 0.015
B5MDU6 and related entries (UniProt Q9H6V9)	1.02 ± 0.067	1.08 ± 0.1
B5MCW3 and related entries (UniProt Q9H0E9)	0.985 ± 0.041	0.981 ± 0.062
B1AQP1 and related entries (UniProt P22415)	0.972 ± 0.066	0.95 ± 0.025
C5orf51 (UniProt A6NDU8)	1.03 ± 0.043	0.993 ± 0.051
C9JRZ6 and related entries (UniProt Q9NX63)	0.98 ± 0.1	0.983 ± 0.035
A6NEM2 and related entries (UniProt P51610)	0.97 ± 0.014	0.987 ± 0.033
SH3PXD2B (UniProt A1X283)	1.01 ± 0.011	0.994 ± 0.079
A2A2G4 and related entries (UniProt Q9Y672)	0.943 ± 0.039	0.905 ± 0.15
B4E1Q4 and related entries (UniProt O14730)	1.03 ± 0.09	0.979 ± 0.092
D6REX3 and related entries (UniProt O94979)	1.01 ± 0.048	0.994 ± 0.031
A0A0J9YWL0|Q9Y4K1 (UniProt Q9Y4K1)	1 ± 0.049	1.02 ± 0.045
B7Z1T1 (UniProt O00258)	1.11 ± 0.076	1.05 ± 0.039
B4DY09 and related entries (UniProt Q12905)	0.993 ± 0.044	1.08 ± 0.024
A0A0G2JHC2|Q6NYC8 (UniProt Q6NYC8)	0.927 ± 0.02	0.934 ± 0.049
B0QY95 and related entries (UniProt Q9NQG6+B0QY95)	1.02 ± 0.025	1 ± 0.014
B7Z2R7 and related entries (UniProt Q5T8D3)	0.977 ± 0.033	0.9806 ± 0.0056

Target	NP40-soluble protein abundance (concentration: 0.1mM)	NP40-soluble protein abundance (concentration: 0.5mM)
C9J494 and related entries (UniProt Q9H000)	1.05 ± 0.05	1.04 ± 0.054
D6RCD0 and related entries (UniProt Q8NBQ5)	0.961 ± 0.042	0.986 ± 0.056
D6RDM7 and related entries (UniProt P61086)	0.966 ± 0.058	0.988 ± 0.042
B3KW44 and related entries (UniProt Q9H825+E7ETE0+B5ME25+B3KW44)	0.971 ± 0.062	0.989 ± 0.072
C9JQV3 and related entries (UniProt Q8N1F8)	1.01 ± 0.012	1.02 ± 0.11
C4B7M2 and related entries (UniProt Q96JI7)	0.944 ± 0.2	1.06 ± 0.11
UniProt A0MZ66	0.994 ± 0.019	1.03 ± 0.039
B7WPL9 and related entries (UniProt Q6PFW1)	0.932 ± 0.061	0.99 ± 0.021
A0A0J9YYJ3|Q9Y519 (UniProt Q9Y519)	1.06 ± 0.091	1.03 ± 0.012
B4DTS2 and related entries (UniProt Q9BZL6)	1.11 ± 0.041	1.103 ± 0.0033
D6RF48 and related entries (UniProt Q9P2W9)	0.978 ± 0.053	0.938 ± 0.065
A0A0R4J2F2|D6R9S8 and related entries (UniProt Q9NY35)	0.944 ± 0.032	0.979 ± 0.044
D6RHU3 and related entries (UniProt P55212)	1.05 ± 0.067	1.04 ± 0.11
C9J2Q2 and related entries (UniProt Q8N5M1)	1.06 ± 0.056	1.1 ± 0.16
B8ZZN6 and related entries (UniProt P63165)	0.856 ± 0.099	0.852 ± 0.14
D3YTB5 and related entries (UniProt P51617)	1.06 ± 0.02	1.08 ± 0.057
CCDC88B (UniProt A6NC98)	0.992 ± 0.039	0.965 ± 0.085
C9JA28 and related entries (UniProt Q9UNL2)	1.04 ± 0.032	1.01 ± 0.076
A0A0U1RQT7|A0A0U1RQY7|Q8IXA3 and related entries (UniProt Q9HCP0)	1.02 ± 0.075	1.17 ± 0.14
B3KS98 and related entries (UniProt O15372)	0.939 ± 0.049	0.958 ± 0.078

Pulled one by one from above (4):
Target	NP40-soluble protein abundance (concentration: 0.1mM)	NP40-soluble protein abundance (concentration: 0.5mM)
B8ZZN6 and related entries (UniProt P63165)	0.856 ± 0.099	0.852 ± 0.14
A0A0J9YYJ3|Q9Y519 (UniProt Q9Y519)	1.06 ± 0.091	1.03 ± 0.012
C9JA28 and related entries (UniProt Q9UNL2)	1.04 ± 0.032	1.01 ± 0.076
B3KW44 and related entries (UniProt Q9H825+E7ETE0+B5ME25+B3KW44)	0.971 ± 0.062	0.989 ± 0.072

Next records

Target	NP40-soluble protein abundance (concentration: 0.1mM)	NP40-soluble protein abundance (concentration: 0.5mM)
UniProt B7ZLF3	1.04 ± 0.068	1 ± 0.061
UniProt A2RTX5 and related entries	1.01 ± 0.048	1 ± 0.082
B2RA97 and related entries (UniProt Q9Y5N5)	1.04 ± 0.13	0.97 ± 0.074
A0A0U1RRM4|A6NLN1 and related entries (UniProt P26599)	0.987 ± 0.074	0.919 ± 0.15
B4E0T2 and related entries (UniProt P50542)	0.987 ± 0.048	0.958 ± 0.062
C9J185 and related entries (UniProt Q9NZJ5)	1.06 ± 0.074	1.01 ± 0.1
C9JZB0 and related entries (UniProt Q9BT40)	1.02 ± 0.016	1 ± 0.087
B7ZL14 and related entries (UniProt Q96RU3)	0.993 ± 0.011	0.991 ± 0.057
B4DGU4 and related entries (UniProt P35222)	1.06 ± 0.068	1.03 ± 0.11
YDJC (UniProt A8MPS7)	1.06 ± 0.022	1 ± 0.054
B4DK77 and related entries (UniProt Q9H6K4)	0.985 ± 0.022	0.867 ± 0.084
B3KUS5 and related entries (UniProt Q70CQ3)	1.02 ± 0.17	1.04 ± 0.066
A9Z1X7 and related entries (UniProt Q8IYB3)	1.03 ± 0.089	1.33 ± 0.12
B4DJV2 and related entries (UniProt O75390)	0.78 ± 0.22	0.814 ± 0.2
RCCD1 (UniProt A6NED2)	0.994 ± 0.032	1.03 ± 0.064
C9JA08 and related entries (UniProt Q96D46)	1.01 ± 0.041	0.98 ± 0.03
A0AVT1	1.06 ± 0.079	1.06 ± 0.073
B0QZ65 and related entries (UniProt Q14C86)	1.01 ± 0.028	0.991 ± 0.018
B7Z836 and related entries (UniProt Q9NYB9)	0.971 ± 0.016	1.06 ± 0.12
